Data source: PubChem BioAssay AID1053208 (Peter MacCallum Cancer Centre, 2014)

Test: 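Find knock-downs that sensitise mouse osteosarcoma cells to doxorubicin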 (primary screen)
Cells: mouse osteosarcoma cells, early-passage culture from an engineered mouse model of fibroblastic bone tumour
Reagent: siRNA pool against mouse genes, 40 nM
Timing: about 120 h (48 h before drug, then 72 h with drug)
Treatment: doxorubicin 100 nM for 72 h, roughly 30-40% inhibitory dose
Read-out: 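Viability read as ATP luminescence after 72 h of 100 nM doxorubicin or none, duplicate wells averaged, scaled to non-targeting siRNA, then expressed as robust z-scores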
Direction: viability z-score with doxorubicin and doxorubicin viability vs non-targeting: higher = more viable cells under doxorubicin; viability z-score without drug: higher = more viable cells with knock-down alone; z-score of drug to no-drug ratio: higher = less drug sensitisation by knock-down
Call rule: 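a pool counts as active when its viability z-score with doxorubicin is -2 or below and its z-score without drug lies between -2 and 2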
The whole screen tested about 17,000 reagents; this is a random part of them. In the full data, 788 (4.7%) are marked active. 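Calls rest on z-score classes alone; an extra cut-off of viability at most 70% of control was not applied to them.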 Entries without a mark were called inactive.

| target | PubChem SID | combined z-score class | viability z-score with doxorubicin | viability z-score without drug | z-score of drug to no-drug ratio | doxorubicin viability vs non-targeting |
| --- | --- | --- | --- | --- | --- | --- |
| Itsn1 | SID152265882 | no change with or without drug | 0.22 | 0.51 | 0 | 0.96 |
| 5730493B19Rik | SID152270205 | no change with or without drug | -0.22 | 0.84 | -0.67 | 0.92 |
| Kcnj16 | SID152326373 | no change with or without drug | -0.11 | 0.17 | -0.11 | 0.93 |
| Scd1 | SID152309992 | high cell count with and without drug | 2.02 | 2.36 | 0.56 | 1.12 |
| Rcan1 | SID152263155 | no change with or without drug | 0.22 | -0.84 | 1.01 | 0.96 |
| Prss46 | SID152292058 | no change with or without drug | 0.34 | 0.84 | -0.11 | 0.97 |
| Fbxw19 | SID152305135 | no change with or without drug | -0.56 | 0.51 | -0.79 | 0.89 |
| Cpt1a | SID152278977 | no change with or without drug | 0.22 | -0.51 | 0.67 | 0.96 |
| Airn | SID152327131 | no change with or without drug | -0.56 | -0.84 | 0.11 | 0.89 |
| Wnt6 | SID152292325 | no change with or without drug | 0 | 0.67 | -0.34 | 0.94 |
| Myh7 | SID152328576 | no change with or without drug | -0.11 | 0.17 | -0.11 | 0.93 |
| Mras | SID152306964 | high cell count with doxorubicin only | 2.02 | -0.84 | 2.92 | 1.12 |
| Sec11c | SID152329457 | high cell count without drug only | 1.01 | 3.37 | -0.9 | 1.03 |
| Prss45 | SID152340275 | no change with or without drug | 0.22 | -0.84 | 1.01 | 0.96 |
| Prl3d2 | SID152283151 | no change with or without drug | 0.22 | 1.85 | -0.79 | 0.96 |
| Csf2 | SID152292218 | no change with or without drug | 0.9 | 1.85 | -0.22 | 1.02 |
| Smarcd1 | SID152321063 | no change with or without drug | 0.11 | -0.51 | 0.56 | 0.95 |
| Tas1r1 | SID152329420 | no change with or without drug | 0.22 | 1.18 | -0.45 | 0.96 |
| Il6 | SID152317279 | no change with or without drug | 0.79 | 0.34 | 0.67 | 1.01 |
| Eif2b5 | SID152330445 | no change with or without drug | -1.8 | -1.52 | -0.79 | 0.78 |
| Or6c1 | SID152268333 | low cell count with doxorubicin only (active) | -2.7 | -0.84 | -2.25 | 0.7 |
| Ap4m1 | SID152268003 | no change with or without drug | 0.9 | 1.85 | -0.22 | 1.02 |
| Scarb2 | SID152293672 | high cell count without drug only | 1.12 | 2.36 | -0.34 | 1.04 |
| Clec7a | SID152329484 | no change with or without drug | -1.01 | -1.18 | -0.11 | 0.85 |
| Ulk2 | SID152293967 | no change with or without drug | -0.22 | 0.84 | -0.67 | 0.92 |
| Adipor1 | SID152342781 | no change with or without drug | 1.01 | 0 | 1.12 | 1.03 |
| Oas3 | SID152332225 | no change with or without drug | 0.9 | 0.67 | 0.56 | 1.02 |
| Hyal1 | SID152295837 | no change with or without drug | -0.67 | -0.84 | 0 | 0.88 |
| Trmt6 | SID152337562 | no change with or without drug | 0.9 | 0.17 | 0.9 | 1.02 |
| Zfp932 | SID152312218 | high cell count with doxorubicin only | 2.02 | 1.69 | 1.01 | 1.12 |
| Or11h6 | SID152262006 | no change with or without drug | -0.11 | 0.67 | -0.45 | 0.93 |
| Rab13 | SID152322078 | low cell count with doxorubicin only (active) | -2.02 | -0.51 | -1.69 | 0.76 |
| Reg1 | SID152300239 | low cell count with and without drug | -7.87 | -6.41 | -6.3 | 0.24 |
| Ccdc7a | SID152281128 | high cell count without drug only | -0.67 | 2.53 | -2.02 | 0.88 |
| Gprc6a | SID152274632 | high cell count with doxorubicin only | 2.25 | 1.18 | 1.57 | 1.14 |
| Rps14 | SID152297255 | low cell count with and without drug | -6.52 | -4.22 | -5.28 | 0.36 |
| Or6c69b | SID152319299 | low cell count with doxorubicin only (active) | -3.93 | -0.51 | -3.82 | 0.59 |
| Cds2 | SID152269548 | low cell count with doxorubicin only (active) | -2.25 | -0.34 | -2.02 | 0.74 |
| Cers2 | SID152305090 | no change with or without drug | -0.22 | 1.18 | -0.9 | 0.92 |
| Fus | SID152307322 | no change with or without drug | -0.11 | 1.18 | -0.79 | 0.93 |

A run of entries from the list above, for reference:
| target | PubChem SID | combined z-score class | viability z-score with doxorubicin | viability z-score without drug | z-score of drug to no-drug ratio | doxorubicin viability vs non-targeting |
| --- | --- | --- | --- | --- | --- | --- |
| Rab13 | SID152322078 | low cell count with doxorubicin only (active) | -2.02 | -0.51 | -1.69 | 0.76 |
| Reg1 | SID152300239 | low cell count with and without drug | -7.87 | -6.41 | -6.3 | 0.24 |
| Ccdc7a | SID152281128 | high cell count without drug only | -0.67 | 2.53 | -2.02 | 0.88 |
| Gprc6a | SID152274632 | high cell count with doxorubicin only | 2.25 | 1.18 | 1.57 | 1.14 |

More results follow:
| target | PubChem SID | combined z-score class | viability z-score with doxorubicin | viability z-score without drug | z-score of drug to no-drug ratio | doxorubicin viability vs non-targeting |
| --- | --- | --- | --- | --- | --- | --- |
| Enam | SID152261254 | no change with or without drug | -1.69 | -0.17 | -1.57 | 0.79 |
| A430057M04Rik | SID152338392 | no change with or without drug | 0 | -0.34 | 0.34 | 0.94 |
| Mmp13 | SID152306819 | no change with or without drug | -0.67 | -0.17 | -0.45 | 0.88 |
| Pde6c | SID152339300 | no change with or without drug | 0.67 | -0.51 | 1.24 | 1 |
| Sec22b | SID152304486 | no change with or without drug | -0.67 | -1.18 | 0.22 | 0.88 |
| Rpl7a | SID152312485 | low cell count with and without drug | -7.19 | -6.24 | -5.17 | 0.3 |
| Polr1a | SID152276347 | low cell count with doxorubicin only (active) | -3.37 | -1.18 | -2.81 | 0.64 |
| Zxdc | SID152314163 | no change with or without drug | 0.45 | -0.17 | 0.67 | 0.98 |
| Chrm3 | SID152274719 | no change with or without drug | 0 | 1.52 | -0.9 | 0.94 |
| Ndufb9 | SID152263159 | low cell count without drug only | 0.45 | -2.87 | 3.15 | 0.98 |
| Cbx8 | SID152336091 | no change with or without drug | -0.11 | 0.17 | -0.11 | 0.93 |
| Slc6a8 | SID152286266 | no change with or without drug | 1.46 | 0 | 1.69 | 1.07 |
| Abcf1 | SID152322793 | no change with or without drug | 0.45 | -0.17 | 0.67 | 0.98 |
| Or8b12c | SID152288326 | no change with or without drug | 1.01 | 0 | 1.12 | 1.03 |
| Fam204a | SID152295666 | low cell count with doxorubicin only (active) | -2.02 | -0.51 | -1.69 | 0.76 |
| Ttc27 | SID152297385 | no change with or without drug | 0.34 | 0.51 | 0.11 | 0.97 |
| Picalm | SID152290446 | no change with or without drug | 0.22 | 1.18 | -0.45 | 0.96 |
| Cercam | SID152262052 | no change with or without drug | -0.11 | -0.51 | 0.34 | 0.93 |
| Or13f5 | SID152319067 | no change with or without drug | 0 | -1.35 | 1.12 | 0.94 |
| Ttll1 | SID152342339 | no change with or without drug | -0.45 | 0.51 | -0.67 | 0.9 |
| Sqle | SID152270219 | no change with or without drug | -0.67 | -0.17 | -0.45 | 0.88 |
| Nubp2 | SID152334856 | no change with or without drug | -0.56 | -1.18 | 0.34 | 0.89 |
| Cldnd1 | SID152338241 | high cell count without drug only | 0.79 | 2.36 | -0.56 | 1.01 |
